Measured values taken from PMC6389929.

The chains behind the UniProt entries cited, without tags or fusion partners. Where a name states a change or a piece, a line headed by the entry shows the natural chain unless it says otherwise.
UniProt Q93009: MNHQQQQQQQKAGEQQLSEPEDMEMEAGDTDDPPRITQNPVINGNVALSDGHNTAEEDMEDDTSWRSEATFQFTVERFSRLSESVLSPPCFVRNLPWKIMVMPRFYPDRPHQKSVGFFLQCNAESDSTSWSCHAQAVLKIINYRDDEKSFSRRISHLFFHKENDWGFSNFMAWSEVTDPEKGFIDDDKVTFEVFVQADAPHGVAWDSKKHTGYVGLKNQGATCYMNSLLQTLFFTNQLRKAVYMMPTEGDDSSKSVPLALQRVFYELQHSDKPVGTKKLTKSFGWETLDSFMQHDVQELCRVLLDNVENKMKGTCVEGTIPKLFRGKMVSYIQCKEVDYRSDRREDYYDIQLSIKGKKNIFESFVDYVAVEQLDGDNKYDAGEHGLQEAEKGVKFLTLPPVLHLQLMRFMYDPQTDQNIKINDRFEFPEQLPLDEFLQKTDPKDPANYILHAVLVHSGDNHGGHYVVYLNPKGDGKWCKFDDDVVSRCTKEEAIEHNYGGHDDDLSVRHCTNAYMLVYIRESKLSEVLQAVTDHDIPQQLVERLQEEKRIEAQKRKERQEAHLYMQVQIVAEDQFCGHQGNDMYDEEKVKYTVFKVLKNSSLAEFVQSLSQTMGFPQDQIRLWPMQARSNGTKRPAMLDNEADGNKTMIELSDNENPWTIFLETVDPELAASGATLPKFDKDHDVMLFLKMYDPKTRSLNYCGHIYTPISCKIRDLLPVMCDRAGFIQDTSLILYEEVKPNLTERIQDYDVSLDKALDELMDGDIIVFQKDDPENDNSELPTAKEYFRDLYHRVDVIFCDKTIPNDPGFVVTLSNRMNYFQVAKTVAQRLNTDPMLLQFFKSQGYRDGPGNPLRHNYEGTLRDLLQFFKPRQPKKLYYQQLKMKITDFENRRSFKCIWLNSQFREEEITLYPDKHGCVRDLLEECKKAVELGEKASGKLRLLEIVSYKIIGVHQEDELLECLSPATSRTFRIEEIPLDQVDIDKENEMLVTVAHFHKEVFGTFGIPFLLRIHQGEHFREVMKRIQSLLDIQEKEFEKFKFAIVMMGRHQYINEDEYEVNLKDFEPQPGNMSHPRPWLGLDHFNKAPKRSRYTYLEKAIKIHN

Target: T1, FLAG-tagged FBXO38 (WT) (UniProt Q6PIJ6)
T1 sequence: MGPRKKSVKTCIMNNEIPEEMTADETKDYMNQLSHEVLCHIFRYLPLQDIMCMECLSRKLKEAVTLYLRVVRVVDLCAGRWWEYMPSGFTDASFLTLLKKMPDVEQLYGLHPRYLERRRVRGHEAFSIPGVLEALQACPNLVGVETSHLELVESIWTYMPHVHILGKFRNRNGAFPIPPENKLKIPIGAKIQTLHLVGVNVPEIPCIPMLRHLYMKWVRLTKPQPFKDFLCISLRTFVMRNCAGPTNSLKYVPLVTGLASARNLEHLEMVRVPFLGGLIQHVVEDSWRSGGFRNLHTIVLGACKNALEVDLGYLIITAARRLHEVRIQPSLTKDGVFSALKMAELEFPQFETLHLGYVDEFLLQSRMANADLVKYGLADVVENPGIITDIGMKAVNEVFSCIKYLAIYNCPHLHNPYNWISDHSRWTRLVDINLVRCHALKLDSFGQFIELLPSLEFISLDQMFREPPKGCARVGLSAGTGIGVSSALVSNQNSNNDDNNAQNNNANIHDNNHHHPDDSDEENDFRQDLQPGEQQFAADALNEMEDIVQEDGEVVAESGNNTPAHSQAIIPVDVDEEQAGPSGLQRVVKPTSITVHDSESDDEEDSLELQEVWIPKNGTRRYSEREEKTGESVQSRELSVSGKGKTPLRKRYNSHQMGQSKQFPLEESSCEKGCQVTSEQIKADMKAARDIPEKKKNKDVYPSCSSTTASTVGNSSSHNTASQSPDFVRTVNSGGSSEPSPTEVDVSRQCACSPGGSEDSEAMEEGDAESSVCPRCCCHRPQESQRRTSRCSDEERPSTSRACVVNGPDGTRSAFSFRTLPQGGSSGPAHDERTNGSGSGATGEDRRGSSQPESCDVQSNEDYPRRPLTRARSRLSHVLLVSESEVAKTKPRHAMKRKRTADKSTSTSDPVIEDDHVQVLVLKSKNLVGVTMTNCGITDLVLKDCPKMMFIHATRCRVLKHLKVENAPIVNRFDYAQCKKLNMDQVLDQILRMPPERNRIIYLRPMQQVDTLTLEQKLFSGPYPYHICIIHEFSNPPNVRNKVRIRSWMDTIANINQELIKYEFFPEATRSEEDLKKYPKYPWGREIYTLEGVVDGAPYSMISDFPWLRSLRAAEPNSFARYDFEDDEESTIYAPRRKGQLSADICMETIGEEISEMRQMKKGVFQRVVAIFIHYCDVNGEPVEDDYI
Test: co-IP; HEK293T cells co-transfected with FLAG-FBXO38 and myc-USP7 constructs; RIPA buffer; M2 anti-FLAG resin overnight at 4 °C; Western blot for FLAG and myc

binding: no binding
Substance: myc-USP7 double pocket mutant (DW/Ubl2) (from UniProt Q93009) (enzyme)

Results are given in words; binding and its absence hold for the method and conditions named. In cells and extracts the contact can be indirect. Sequences can lack the tags named with a protein.
